# Screening data, single-dose tests

Sequences of proteins named here, by UniProt entry; tags and fusion partners are left off. Residues count along the entry.
UniProt Q8IDJ8, 1-583: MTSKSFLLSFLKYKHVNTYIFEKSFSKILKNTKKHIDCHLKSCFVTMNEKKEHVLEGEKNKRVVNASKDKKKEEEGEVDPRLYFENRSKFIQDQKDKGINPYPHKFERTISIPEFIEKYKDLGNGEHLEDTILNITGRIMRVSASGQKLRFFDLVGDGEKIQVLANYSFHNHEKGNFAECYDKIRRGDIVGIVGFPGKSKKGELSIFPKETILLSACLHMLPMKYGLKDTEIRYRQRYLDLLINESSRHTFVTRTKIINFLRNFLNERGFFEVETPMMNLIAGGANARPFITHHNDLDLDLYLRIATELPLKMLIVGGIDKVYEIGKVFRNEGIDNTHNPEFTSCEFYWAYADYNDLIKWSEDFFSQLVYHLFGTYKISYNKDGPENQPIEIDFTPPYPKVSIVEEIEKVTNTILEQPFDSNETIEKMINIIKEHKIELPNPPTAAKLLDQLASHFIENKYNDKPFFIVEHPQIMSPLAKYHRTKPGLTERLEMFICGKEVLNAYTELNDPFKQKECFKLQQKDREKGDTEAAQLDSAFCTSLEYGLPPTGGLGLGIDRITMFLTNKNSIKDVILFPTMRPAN
UniProt A4I591, 1-473: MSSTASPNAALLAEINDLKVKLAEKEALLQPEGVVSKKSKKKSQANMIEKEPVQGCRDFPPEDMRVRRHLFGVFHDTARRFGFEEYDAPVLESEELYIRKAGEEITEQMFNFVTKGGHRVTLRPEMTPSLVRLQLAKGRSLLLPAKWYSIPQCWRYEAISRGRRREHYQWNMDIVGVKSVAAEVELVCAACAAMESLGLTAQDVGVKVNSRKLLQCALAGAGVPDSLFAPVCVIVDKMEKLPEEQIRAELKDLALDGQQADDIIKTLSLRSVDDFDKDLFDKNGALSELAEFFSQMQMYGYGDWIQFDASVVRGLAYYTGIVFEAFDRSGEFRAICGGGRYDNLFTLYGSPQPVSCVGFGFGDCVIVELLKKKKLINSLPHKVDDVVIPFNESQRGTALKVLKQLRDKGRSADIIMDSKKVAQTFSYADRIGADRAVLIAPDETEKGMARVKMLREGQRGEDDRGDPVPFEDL

Data taken from ChEMBL document CHEMBL3988442, “University of Dundee, Small-Polar-MMV Screening Library” (2021).

A: 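Whole-parasite assay of Trypanosoma brucei over 72 hours; the read-out is not stated. Tested at 30 µM. Higher reads as stronger inhibition (inferred: compounds with an IC50 in retests scored well above the rest). Values scatter widely below zero; nearly all retest evidence comes from the higher of the two concentrations used. Of about 64,000 compounds tested this way, about 940 (1.5%) reached 50% or more in at least one test.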
B: 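Enzyme assay of the cytosolic lysyl-tRNA synthetase in 384-well plates, read by luminescence. Target: Lysine-tRNA ligase, Plasmodium falciparum 3D7 (UniProt Q8IDJ8). Concentration: 30 µM. Higher reads as stronger inhibition, judged from the few compounds that gave an IC50. About 69,000 compounds were tested under these conditions; 0.071% (about 49) showed 50% or more at least once.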
C: 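Histidine-tRNA ligase, Leishmania infantum (UniProt A4I591). Enzyme assay of histidyl-tRNA synthetase; the read-out is not stated. Concentration: 30 µM. Direction is inferred from retests: higher values go with stronger inhibition. The assay is labelled LdHisRS but filed under L. infantum. Of about 69,000 compounds tested this way, about 410 (0.6%) reached 50% or more in at least one test.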
D: 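Assay of Toxoplasma gondii numbers, read through their beta-galactosidase reporter with a colour substrate. Tested at 10 µM. Higher reads as fewer parasites (inferred from which compounds were picked for retests). Of about 67,000 compounds tested this way, about 260 (0.38%) reached 50% or more in at least one test.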

Results are given as percent effect. The record does not define 0% and 100%; most values in the screen are far below 50% and negative numbers occur (in some assays of this library far below -100). This is an unselected part of the compounds tested. A dash means the value is not listed here; it may have been measured.

| compound | A | B | C | D |
|---|---|---|---|---|
| `Cn1cc(CN2CCC3(CC(=O)N(c4ccc5c(c4)OCO5)C3)C2)cn1.O=C(O)C(F)(F)F` (stereo not given) | 16.58 | - | - | 5.588 |
| `CN1CCN(CCCNC(=O)c2cc(Cl)c3c(c2)OCO3)CC1` | -5.361 | 2.216 | 25.96 | -10.7 |
| `N#CCCN(CCC#N)C(=O)CN(C1CC1)C1CCc2ccccc21` (stereo not given) | -7.759 | 7.347 | 18.58 | -0.2016 |
| `COc1ccc(N2CCCC3(C2)CN(c2cccnc2)CCO3)cc1` (stereo not given) | - | 2.875 | 42.11 | - |
| `Cn1ccnc1CN1CCCN(C(=O)c2ccc3[nH]cnc3c2)CC1` | -1.923 | 0.3714 | 16.96 | -2.136 |
| `C[C@@H]1CN(C(=O)CCN2CCCC2)CC[C@@]1(O)C1CCC1` | -15.93 | 3.086 | 8.571 | 12.74 |
| `CC(C(=O)N1CCCC1)N1CCC(c2nccn2Cc2cscn2)CC1` (stereo not given) | -6.702 | 3.178 | 13.33 | -10.72 |
| `Cc1ccc(C(=O)N2Cc3c(CN4CCCCC4)nn(C)c3C2)o1.O=C(O)C(F)(F)F` | 0.5997 | - | - | 6.153 |
| `Cn1nnc2c1C(COCC1CC1)CN(Cc1ccoc1)C2` (stereo not given) | - | 2.997 | 1.818 | - |
| `CCn1cc(-c2cncn2CCc2ccc3c(c2)OCCO3)cn1.Cl` | -48.43 | - | - | 5.258 |
| `Cc1ccc(CN(CCCN2CCOCC2)Cc2cncn2C)o1` | - | 0.4558 | 6.207 | - |
| `CCNS(=O)(=O)c1ccc(C)c(C(=O)N(C)Cc2ccccc2C)c1` | -25.75 | -0.4186 | -1.37 | 1.138 |
| `Cc1ncsc1CN1CCN(C)C2(CCC(=O)N(CCO)CC2)C1` (stereo not given) | -14.22 | 1.743 | 5.085 | 12.4 |
| `c1ccc(OCCN2CCC(c3nnc(-c4cccnc4)o3)CC2)cc1` | 14.86 | 2.901 | 19.79 | -2.627 |
| `CN1CCN(Cc2cccnc2)C2(CCN(c3ncccn3)C2)C1=O` (stereo not given) | - | 8.887 | 20.55 | - |
| `CC[C@@H]1N(Cc2ccncc2)CCC[C@]12CCC(=O)N2C.O=C(O)C(F)(F)F.O=C(O)C(F)(F)F` | 15.04 | - | - | -4.695 |
| `Cc1nc(CN2CCCC2c2c(C)nn(C)c2Cl)no1` (stereo not given) | -36.61 | 6.703 | 7.576 | -1.193 |
| `O=C(NCCNS(=O)(=O)c1cccc(Cl)c1)C1CCCO1` (stereo not given) | -26.02 | 5.828 | 16.88 | -4.135 |
| `Cc1ccc(OC2(C(=O)O)CCN(C(=O)c3ccoc3C)CC2)cn1` | 13.48 | 5.912 | 22.22 | -12.07 |
| `Cc1noc(C)c1CN1C[C@@H](C(=O)O)[C@H](c2ccccn2)C1` | -4.582 | -0.3598 | 9.524 | 8.048 |
| `NC(=O)C1CCN(CCc2ccc(NCc3cscn3)cc2)CC1` | 29.49 | 5.502 | 3.175 | 4.307 |
| `N#Cc1ccc(F)c(CN2CCCC2Cn2cnc3ccccc32)c1` (stereo not given) | -35.61 | -1.844 | 6.154 | -0.8616 |
| `O=C(NC1CC1)[C@@H]1CCO[C@@H]2CCN(CCc3ccccc3)C[C@@H]21` | - | 2.51 | 15.07 | - |
| `Cc1cc(C(C)C(=O)N2CCCN(Cc3cscn3)CC2)c(C)o1` (stereo not given) | -26.57 | -0.2789 | 26.4 | 11.29 |
| `Cc1cc2nc(CO[C@H]3CN(CC4CC4)C[C@H]3F)[nH]c2cc1C` | -24.46 | 11.15 | 27.03 | -1.859 |
| `CN(CCC(O)c1ccccc1)Cc1nc(-c2ccccc2)no1` (stereo not given) | -13.82 | 3.327 | 15.84 | 8.255 |
| `O=C(NCC1CCN(CCc2ccccc2)C1)NCC1(O)CCC1` (stereo not given) | -1.969 | 2.281 | 12.5 | 1.1 |
| `Cl.Cn1ncc2c1CCCC2NCc1cccc(C(F)(F)F)c1` (stereo not given) | -17.27 | - | - | 18.89 |
| `O=C(CN1CCc2c(ncn2C2CC2)C1)NC1CCN(C2CC2)CC1` | - | 0.8173 | 13.68 | -6.511 |
| `CN1CCS(=O)(=O)[C@@H]2CCN(C(=O)c3ccccc3)CC[C@@H]21` | - | 6.813 | 25 | - |
| `Cc1oncc1S(=O)(=O)N1CCCC(C)(Cc2ccc3c(c2)OCO3)C1` (stereo not given) | -22.17 | -1.137 | 5.128 | -0.8221 |
| `Cc1cc2[nH]cc(C(=O)N3CCCCC3c3ccc(F)cc3)c(=O)n2n1` (stereo not given) | 10.96 | 5.339 | 21.88 | 3.034 |
| `N#Cc1cccnc1N1CCCN(C(=O)CCn2cncn2)CC1` | -0.947 | 1.405 | 8.772 | -9.142 |
| `c1ccc(NCc2cccc(OCCN3CCOCC3)c2)nc1` | -0.602 | 6.319 | 11.29 | 6.273 |
| `COc1ccc(C(=O)COc2coc(CN3CCSCC3)cc2=O)cc1` | -30.28 | 5.146 | 10.53 | -9.23 |
| `CC(C)n1nc(CN2CCOCC2)c2c1CN(C(=O)c1ccno1)C2` | - | 4.148 | 8.108 | - |
| `Cc1cc2[nH]c(CN3CCOC(c4ccc(Cl)cc4)C3)cc(=O)n2n1` (stereo not given) | -2.482 | 0.1654 | 22.22 | -4.076 |
| `O=C1CO[C@H]2CN(S(=O)(=O)c3ccccc3)C[C@H]2N1Cc1ccccn1` | - | 4.024 | 27.78 | - |
| `O=C(c1csc(-c2cccs2)n1)N1CCN2CCCCC2C1` (stereo not given) | -31.61 | -0.7717 | 7.937 | 3.953 |
| `COc1ncccc1CN1C[C@@H]2COC[C@]2(CNS(C)(=O)=O)C1` | - | -4.323 | 2.564 | - |
| `O=C(O)C(F)(F)F.[H][C@@]12CN(C(=O)c3cccnc3)C[C@]1([H])CN(c1cc(OC)ncn1)C2` | -109.8 | - | - | 9.746 |
| `CCc1cc(N2CCSCC2)n2nc(C)c(C)c2n1` | -240.5 | -7.631 | -0.9709 | -1.762 |
| `CCOCC(=O)N1CC[C@H]2OCC[C@@H](c3nnc(C)o3)[C@H]2C1` | - | 0.1141 | 18.42 | - |
| `O=C(Nc1ccc(N2CCCCC2)nc1)N1CCc2sccc2C1` | 15.58 | 3.3 | 27.27 | -0.4042 |

Some entries from above, unchanged:

compound,A,B,C,D
Cc1ncsc1CN1CCN(C)C2(CCC(=O)N(CCO)CC2)C1 (stereo not given),-14.22,1.743,5.085,12.4
COc1ncccc1CN1C[C@@H]2COC[C@]2(CNS(C)(=O)=O)C1,-,-4.323,2.564,-
CN(CCC(O)c1ccccc1)Cc1nc(-c2ccccc2)no1 (stereo not given),-13.82,3.327,15.84,8.255